Experimental data: PubChem BioAssay AID493014 (National Center for Advancing Translational Sciences (NCATS), 2011)
The other results are listed elsewhere or left out. These are further read-outs of the screen, such as a control signal, another cell line or another target. No call is given for them. Most of these compounds were active or inconclusive in the main read-out, so they are no random draw. The note in brackets gives the kind of curve behind each potency; many fits are weak.

Assay: qHTS Assay to Find Inhibitors of Chronic Active B-Cell Receptor Signaling
Conditions: ABC-DLBCL IkBa-CBG/CBR reporter, luminescence ratio (green luciferase fused to IkBa over red control in TMD8 lymphoma cells), 4 h
In short: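 Compounds up to 46 uM were incubated four hours with TMD8 cells whose green CBG68 luciferase is fused to IkappaBalpha; red CBR luminescence normalised the signal, and concentration-effect curves were fitted to fusion, red and ratio data.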

[1] = measured here: CBR red luminescence, cell number
[2] = measured here: IkBa-CBG green luminescence

Structure (SMILES): C=CCSc1nnc(NC(=O)c2cccc(S(=O)(=O)N3CCOCC3)c2)s1
- AC50 [1]: 16.4 µM [falling, partial curve, poor fit]

Structure (SMILES): CC(C)/C(=N\NC(=O)Nc1ccccc1)c1ccccc1
- AC50 [1]: 10 µM [rising, partial curve]

Structure (SMILES): Cn1nccc1-c1cc(Cl)cc(Cl)c1O
- AC50 [1]: 15.8 µM [rising, single point]

Structure (SMILES): Cc1ccc(S(=O)(=O)Nc2c(NC3CCCCC3)c3ccccc3oc2=O)cc1C
- AC50 [1]: 12.6 µM [falling, partial curve, poor fit]

Structure (SMILES): BrC(=C\c1ccccc1)/C=N/Nc1ccc2nncn2n1
- AC50 [1]: 3.98 µM [rising, partial curve, poor fit]

Structure (SMILES): COc1ccc(Nc2nc3ccccc3nc2-n2nc(C)cc2C)cc1
- AC50 [1]: 29.1 µM [rising, single point]

Structure (SMILES): O=C(CSc1ccc2nnc(-c3cccc(F)c3)n2n1)NCC1CCCO1 (stereo not drawn)
- AC50 [1]: 5.62 µM [rising, full curve, poor fit]

Structure (SMILES): O=C(CCNC(=O)c1ccccc1Cl)Nc1cc(S(=O)(=O)N2CCOCC2)ccc1N1CCOCC1
- AC50 [1]: 15.8 µM [falling, single point]

Structure (SMILES): CN(C)CCNC(=O)c1cc2c(s1)-c1ccccc1OC2
- AC50 [1]: 8.2 µM [falling, partial curve, poor fit]

Structure (SMILES): O=C(N/N=C/c1ccc(Cl)cc1Cl)C(=O)NC1CC1
- AC50 [1]: 3.98 µM [rising, full curve]

Structure (SMILES): CN(C)c1nc(=NCc2ccco2)ss1
- AC50 [1]: 0.708 µM [falling, full curve, poor fit]
- AC50 [2]: 1 µM [falling, full curve]

Structure (SMILES): Cc1cccc(NC(=O)c2cc(-c3ccc(C)c(C)c3O)n[nH]2)c1
- AC50 [1]: 12.6 µM [falling, partial curve]

Structure (SMILES): O=S(=O)(Nc1ccc(-c2nc3cccnc3s2)cc1)c1ccc(Cl)s1
- AC50 [1]: 29.1 µM [falling, single point]

Structure (SMILES): O=C(/C=C1\SC(=O)NC1=O)Nc1ccc(C(=O)O)cc1
- AC50 [1]: 7.94 µM [falling, full curve, poor fit]

Structure (SMILES): CC(=O)Nc1cc2nc(C)n(Cc3ccccc3)c2nc1C
- AC50 [1]: 15.8 µM [rising, partial curve, poor fit]

Structure (SMILES): CCC(=O)Nc1cccc(NC(=S)NC(=O)c2ccccc2C)c1
- AC50 [1]: 4.47 µM [falling, partial curve]

Structure (SMILES): COc1ccccc1NC(=O)CC1S/C(=N/N=C2\CCCc3ccccc32)NC1=O (stereo not drawn)
- AC50 [1]: 11.2 µM [falling, partial curve, poor fit]

Structure (SMILES): C[C@@H](C(=O)O)[C@H]1C[C@]1(C)[C@H](NC(=O)OCc1ccccc1)c1ccccc1
- AC50 [1]: 16.4 µM [rising, partial curve, poor fit]

Structure (SMILES): Cc1ccc(NC(=O)c2ccc3c(c2)OCCO3)cc1S(=O)(=O)Nc1cccc(Cl)c1
- AC50 [1]: 18.4 µM [falling, partial curve]
- AC50 [2]: 23.1 µM [rising, partial curve, poor fit]

Structure (SMILES): O=S(c1ccc2ccccc2c1)c1cnns1 (stereo not drawn)
- AC50 [1]: 6.31 µM [falling, single point]

Structure (SMILES): COc1cc(OC)cc(-c2c(-c3ccc(F)cc3)c3cc(-c4ccc5[nH]ccc5c4)ccc3n2C)c1
- AC50 [1]: 29.1 µM [rising, single point]

Structure (SMILES): COc1ccc(NC(=O)c2cc(CC(C)C)on2)cc1OC
- AC50 [1]: 29.1 µM [rising, single point]

Structure (SMILES): CCN(Cc1nc(-c2ccc(OC)c(OC)c2)no1)C(=O)c1ccoc1C
- AC50 [1]: 11.2 µM [falling, partial curve]

Structure (SMILES): O=C(CSc1ccccn1)Nc1ccc2c(c1)C(=O)c1ccccc1C2=O
- AC50 [2]: 23.1 µM [rising, partial curve, poor fit]

Structure (SMILES): Cc1[nH]n2c(=O)c3c(nc2c1-c1ccccc1)CCC3
- AC50 [1]: 0.92 µM [falling, full curve, poor fit]

Structure (SMILES): CCc1ccc(NC2Nc3cc(C)nn3S2)cc1 (stereo not drawn)
- AC50 [1]: 0.92 µM [rising, full curve, poor fit]

Structure (SMILES): O=C(Nc1ccc(Cl)cn1)Nc1ccc(Cl)cn1
- AC50 [1]: 1.78 µM [rising, full curve, poor fit]

Structure (SMILES): O=C(NC1CCCCC1)c1ccc2c(c1)OCO2
- AC50 [1]: 17.8 µM [falling, partial curve, poor fit]

Structure (SMILES): CNC(=O)c1ncoc1-c1ccc(Cl)cc1
- AC50 [1]: 2.82 µM [rising, single point]

Structure (SMILES): Cc1cc(C)c(C(=O)CSc2nc(C)cc(=O)[nH]2)c(C)c1
- AC50 [1]: 3.55 µM [rising, single point]

Structure (SMILES): Nc1[nH]n(-c2ccccc2)c(=O)c1N=Nc1ccc2c(c1)OCO2
- AC50 [1]: 1 µM [falling, full curve]

Structure (SMILES): Cc1ccc(NC(=O)Cn2cnc3sc(C(=O)NCc4ccco4)c(C)c3c2=O)cc1Cl
- AC50 [1]: 23.1 µM [rising, single point]

Structure (SMILES): O=C(CCn1c(=O)c2ccccc2n(CC(=O)NC2CCCC2)c1=O)NCc1ccco1
- AC50 [1]: 6.51 µM [rising, single point]

Structure (SMILES): Cc1sc2ncnc(N=Nc3c(O)[nH]c4ccccc34)c2c1C
- AC50 [1]: 0.461 µM [falling, full curve, poor fit]

Structure (SMILES): CC1=C(C#N)C(c2ccc3ncccc3c2)C(C#N)=C(C)N1
- AC50 [1]: 9.2 µM [rising, partial curve, poor fit]

Structure (SMILES): O=c1[nH]c2cc(Br)cnc2nc1/C=C(\O)c1ccc(F)cc1
- AC50 [1]: 0.631 µM [falling, full curve, poor fit]

Structure (SMILES): COc1cc(OC)cc(C(=O)NNC(=O)c2ccc3c(c2)OCCO3)c1
- AC50 [1]: 23.1 µM [falling, partial curve]

Structure (SMILES): CCOC(=O)C1CCCN(S(=O)(=O)c2ccc(Br)c(OC)c2)C1 (stereo not drawn)
- AC50 [1]: 8.2 µM [falling, partial curve, poor fit]

Structure (SMILES): COc1ccc(C(=O)COC(=O)CCC(=O)c2cccs2)cc1
- AC50 [1]: 35.5 µM [falling, single point]

Structure (SMILES): CCC(c1nnnn1Cc1ccco1)N(Cc1cc2cc(OC)ccc2[nH]c1=O)C1CCCCC1 (stereo not drawn)
- AC50 [1]: 23.1 µM [falling, partial curve]
- AC50 [2]: 20.6 µM [rising, partial curve, poor fit]
